Test results taken from PubChem BioAssay.
The other results are listed elsewhere or left out. Results with a measured potency or affinity are listed apart. Where no call is shown, the source marks the result inconclusive.

Assay: PubChem AID 1597
Conditions: Drosophila SCA1 polyglutamine model, at 1 µM, stronger effect = higher value

Question: With `COC(=O)Nc1nc2ccc(C(=O)c3ccccc3)cc2[nH]1` as the molecule, how does the suppression of toxicity read?
Answer: 0

Question: Which suppression of toxicity does the source give for `Cn1cc[nH]c1=S` here?
Answer: 2.86

Question: With `COc1ccc(-c2coc3cc(O)cc(O)c3c2=O)cc1` as the molecule, how does the suppression of toxicity read?
Answer: 0

Question: For `COc1c2ccoc2cc2oc(=O)ccc12`, which suppression of toxicity is on record?
Answer: 4.29

Question: For `CCn1cc(C(=O)O)c(=O)c2cc(F)c(N3CCNC(C)C3)c(F)c21` (centres undefined), which suppression of toxicity is on record?
Answer: 2.15

Question: With `NCCCCCC(=O)O` as the molecule, how does the suppression of toxicity read?
Answer: 1.43

Question: With `CCCCCCCCCCCCCCCCCCOCC(O)CO` (centres undefined) as the molecule, how does the suppression of toxicity read?
Answer: 0

Question: Which suppression of toxicity does the source give for `CN(C)CCN(Cc1cccs1)c1ccccn1` here?
Answer: 15.7

Question: Which suppression of toxicity does the source give for `C=C1c2cccc(O)c2C(O)=C2C(=O)[C@]3(O)C(O)=C(C(N)=O)C(=O)[C@@H](N(C)C)[C@@H]3[C@@H](O)[C@H]12` here?
Answer: 6.42

Question: With `Nc1nc2ncc(CNc3ccc(C(=O)N[C@@H](CCC(=O)O)C(=O)O)cc3)nc2c(=O)[nH]1` as the molecule, how does the suppression of toxicity read?
Answer: 5.71

Question: With `CC1=C(CC(=O)O)c2cc(F)ccc2/C1=C\c1ccc(S(C)=O)cc1` (centres undefined) as the molecule, how does the suppression of toxicity read?
Answer: 2.15

Question: Which suppression of toxicity does the source give for `COC(=O)[C@H](c1ccccc1Cl)N1CCc2sccc2C1` here?
Answer: 11.4

Question: For `CC1(C)O[C@@H]2CC3C4C[C@H](F)C5=CC(=O)C=CC5(C)C4C(O)CC3(C)[C@]2(C(=O)CO)O1` (some centres undefined), which suppression of toxicity is on record?
Answer: 0

Question: For `CC(Cc1cccc(C(F)(F)F)c1)NCCOC(=O)c1ccccc1` (centres undefined), which suppression of toxicity is on record?
Answer: 10

Question: Which suppression of toxicity does the source give for `CC1=C(/C=C/C(C)=C/C=C/C(C)=C/C(=O)O)C(C)(C)CCC1` here?
Answer: 1.43

Question: For `CCC(=O)OCC(=O)C1(OC(=O)CC)C(C)CC2C3CCC4=CC(=O)C=CC4(C)C3(Cl)C(O)CC21C` (centres undefined), which suppression of toxicity is on record?
Answer: 2.15

Question: Which suppression of toxicity does the source give for `CC(C)Cn1c(=O)n(C)c(=O)c2[nH]cnc21` here?
Answer: 12.9

Question: Which suppression of toxicity does the source give for `c1ccc([C@H]2CN3CCSC3=N2)cc1` here?
Answer: 2.15

Question: With `Oc1c(Cl)cc(Cl)c2cccnc12` as the molecule, how does the suppression of toxicity read?
Answer: 5.71

Question: Which suppression of toxicity does the source give for `Cc1ccc(C)c(OCCCC(C)(C)C(=O)O)c1` here?
Answer: 8.57

Question: Which suppression of toxicity does the source give for `CCCCOc1ccc(OCCCN2CCOCC2)cc1` here?
Answer: 15

Question: Which suppression of toxicity does the source give for `NCCCC[C@H](N[C@@H](CCc1ccccc1)C(=O)O)C(=O)N1CCC[C@H]1C(=O)O` here?
Answer: 0

Question: With `NC1=NCCN1CC(=O)O` as the molecule, how does the suppression of toxicity read?
Answer: 5

Question: Which suppression of toxicity does the source give for `C[C@@H]1CC2C3C[C@H](F)C4=CC(=O)C=CC4(C)C3(F)[C@@H](O)CC2(C)C1C(=O)COC(=O)C(C)(C)C` (some centres undefined) here?
Answer: 7.14

Question: Which suppression of toxicity does the source give for `CC[N+](CC)(CC)CCOc1cccc(OCC[N+](CC)(CC)CC)c1OCC[N+](CC)(CC)CC` here?
Answer: 24.3

Question: With `CC(C)[N+]1(C)C2CC[C@@H]1CC(OC(=O)C(CO)c1ccccc1)C2` (some centres undefined) as the molecule, how does the suppression of toxicity read?
Answer: 7.86

Question: With `CCCCOc1cc(C(=O)NCCN(CC)CC)c2ccccc2n1` as the molecule, how does the suppression of toxicity read?
Answer: 11.4

Question: For `Cc1c(C)c2c(c(C)c1O)CCC(C)(CCCC(C)CCCC(C)CCCC(C)C)O2` (centres undefined), which suppression of toxicity is on record?
Answer: 11.4

Question: Which suppression of toxicity does the source give for `CCOC(=O)C(Cc1ccc(O)cc1)NC(C)=O` (centres undefined) here?
Answer: 9.29

Question: For `NCCCCC(N)C(=O)NC(Cc1ccc(O)cc1)C(=O)NC(CCCCN)C(=O)O` (centres undefined), which suppression of toxicity is on record?
Answer: 7.21

Question: For `CNCCCN1c2ccccc2CCc2ccccc21`, which suppression of toxicity is on record?
Answer: 2.15

Question: With `CSCCC(NC=O)C(=O)NC(Cc1ccccc1)C(=O)O` (centres undefined) as the molecule, how does the suppression of toxicity read?
Answer: 10

Question: With `OCc1cc2c(cn1)[nH]c1ccccc12` as the molecule, how does the suppression of toxicity read?
Answer: 2.86

Question: With `O=c1cc(-c2ccc(O)cc2)oc2cc(O)cc(O)c12` as the molecule, how does the suppression of toxicity read?
Answer: 0.715

Question: Which suppression of toxicity does the source give for `CNC(=O)Oc1ccc2c(c1)[C@]1(C)CCN(C)[C@@H]1N2C` here?
Answer: 4.29

Question: For `Nc1ncnc2c1ncn2C1OC(CO)[C@H](O)C1O` (some centres undefined), which suppression of toxicity is on record?
Answer: 1.43

Question: For `N[C@@H]1[C@@H](O)[C@H](O)[C@@H](CO)O[C@H]1O`, which suppression of toxicity is on record?
Answer: 7.14

Question: For `CCC(Cc1c(I)cc(I)c(N)c1I)C(=O)O` (centres undefined), which suppression of toxicity is on record?
Answer: 0

Question: For `Nc1ccc(S(=O)(=O)Nc2cnc3ccccc3n2)cc1`, which suppression of toxicity is on record?
Answer: 4.29
